Assay results: patent US20130102009A1, “SIRTUIN ACTIVATORS AND ACTIVATION ASSAYS” (priority 2010, published 2013)
Not every entry of the source has a single result; some have several. They are shown here; other results are not. The source may hold further records. Results that share an entry differ, and nothing given here explains why; they may come from other doses, times, organisms or constructs than stated.

Chains of the proteins cited; added tags and fusions are not shown.
UniProt Q96EB6, whole entry: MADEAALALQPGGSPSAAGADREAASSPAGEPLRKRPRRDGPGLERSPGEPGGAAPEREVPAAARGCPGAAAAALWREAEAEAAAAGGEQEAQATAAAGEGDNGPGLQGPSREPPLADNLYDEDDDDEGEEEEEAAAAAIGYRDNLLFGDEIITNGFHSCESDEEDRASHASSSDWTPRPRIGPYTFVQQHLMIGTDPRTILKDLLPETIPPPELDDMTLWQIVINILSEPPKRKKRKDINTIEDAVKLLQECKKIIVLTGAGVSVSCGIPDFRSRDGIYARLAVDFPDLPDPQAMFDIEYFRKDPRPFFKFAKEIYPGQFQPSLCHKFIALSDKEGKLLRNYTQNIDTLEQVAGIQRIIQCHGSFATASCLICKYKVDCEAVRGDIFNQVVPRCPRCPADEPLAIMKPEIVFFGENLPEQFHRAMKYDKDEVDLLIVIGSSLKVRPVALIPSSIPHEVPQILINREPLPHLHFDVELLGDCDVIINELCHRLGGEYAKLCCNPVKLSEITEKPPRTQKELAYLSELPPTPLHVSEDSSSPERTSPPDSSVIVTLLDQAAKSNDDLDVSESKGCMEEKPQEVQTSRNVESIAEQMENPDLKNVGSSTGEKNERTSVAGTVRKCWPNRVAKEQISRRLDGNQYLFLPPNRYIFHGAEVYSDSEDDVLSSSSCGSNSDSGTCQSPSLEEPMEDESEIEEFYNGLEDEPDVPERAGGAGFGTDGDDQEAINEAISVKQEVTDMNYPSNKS

Biological target: SIRT1 (Homo sapiens, UniProt Q96EB6)
Test: Continuous PNC1-GDH-coupled assay of SIRT1-catalyzed deacetylation of Ac-Arg-His-Lys-Lys^Ac-X with STACs
Type: biochemical
Conditions: [SRT]o = 5 μM, [peptide]o ≦ Km, [NAD+] = 70 μM

COc1cc(C(=O)Nc2ccccc2-c2cn3c(CN4CCNCC4)csc3n2)cc(OC)c1OC
Relative Velocity, X=AMC (Ac-Arg-His-Lys-Lys^Ac-AMC): inhibits and 0.6 | Relative Velocity, X=Trp-NH2 (Ac-Arg-His-Lys-Lys^Ac-Trp-NH2): activates and 1.6
